Assay results reported in patent EP2236511A2, “LIGANDS OF ALPHA-ADRENOCEPTORS AND OF DOPAMINE, HISTAMINE, IMIDAZOLINE AND SEROTONIN RECEPTORS AND THE USE THEREOF” (priority 2007, dated 2009).
Where a name gives a salt, the structure may show the parent alone.

System: imidazoline receptor I2
Assay: Radioligand binding to imidazoline receptor I2 ([3H] Idazoxan, rat brain membranes)

Row | SMILES | nH
1 | Cc1ccc2c(c1)c1c(n2CCc2ccccc2)CCN(C)C1 [1.1.2(1-2)·HCl, 2,8-dimethyl-5-phenethyl-1,2,3,4-tetrahydro-1H-pyrido[4,3-b]indole hydrochloride] | 0.804
2 | CN1CCc2c(c3ccccc3n2Cc2ccccc2)C1.Cl [1.9(1)·HCl, 5-benzyl-2-methyl-2,3,4,5-tetrahydro-1H-pyrido[4,3-b]indole hydrochloride] | 0.983
3 | CN1CCc2c(c3ccccc3n2Cc2ccccc2)C1 [1.9(1)·1/2NDSA, bis-(5-benzyl-2-methyl-2,3,4,5-tetrahydro-1H-pyrido[4,3-b]indole) naphthalene-1,5-disulfonate] | 3.31
